Test results taken from paper PMC7733462.
Results are given in words; binding and its absence hold for the method and conditions named. In cells and extracts the contact can be indirect. Some entries that bind do so weakly or less than the wild type. For part of these data: Sequences can lack the tags named with a protein.

Amino acid sequences for entries named in this document (tags omitted).
UniProt Q9QZL0: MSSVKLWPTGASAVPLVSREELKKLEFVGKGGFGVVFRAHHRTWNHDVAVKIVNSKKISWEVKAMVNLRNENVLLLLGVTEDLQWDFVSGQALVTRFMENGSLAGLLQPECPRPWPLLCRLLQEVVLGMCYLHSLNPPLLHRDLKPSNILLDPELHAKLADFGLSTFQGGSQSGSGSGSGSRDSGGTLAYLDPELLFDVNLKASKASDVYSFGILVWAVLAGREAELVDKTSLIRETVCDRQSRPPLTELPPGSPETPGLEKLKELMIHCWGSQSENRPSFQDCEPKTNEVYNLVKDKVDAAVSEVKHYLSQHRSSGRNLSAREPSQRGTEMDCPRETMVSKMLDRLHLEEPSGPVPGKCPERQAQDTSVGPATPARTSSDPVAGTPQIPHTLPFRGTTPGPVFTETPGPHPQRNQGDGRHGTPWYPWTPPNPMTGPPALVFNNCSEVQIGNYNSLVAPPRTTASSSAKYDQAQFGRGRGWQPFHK

T1: TNFR1 (mouse, endogenous) (mouse (endogenous in MEFs)) (UniProt P25118)
T1 sequence: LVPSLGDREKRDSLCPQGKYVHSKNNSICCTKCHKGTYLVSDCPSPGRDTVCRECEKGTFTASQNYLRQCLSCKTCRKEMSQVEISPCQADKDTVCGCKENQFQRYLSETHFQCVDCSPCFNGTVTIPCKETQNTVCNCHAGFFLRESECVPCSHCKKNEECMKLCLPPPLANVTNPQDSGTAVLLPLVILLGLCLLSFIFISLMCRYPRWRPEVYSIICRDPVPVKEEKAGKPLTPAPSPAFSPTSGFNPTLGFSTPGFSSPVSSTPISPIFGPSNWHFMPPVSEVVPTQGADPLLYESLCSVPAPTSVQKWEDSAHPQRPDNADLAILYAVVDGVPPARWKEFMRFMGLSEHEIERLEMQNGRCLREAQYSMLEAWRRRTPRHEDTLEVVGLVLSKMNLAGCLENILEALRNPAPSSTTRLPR

T2: myc-hRIPK1-WT (full length) (human), Q13546
T2 chain: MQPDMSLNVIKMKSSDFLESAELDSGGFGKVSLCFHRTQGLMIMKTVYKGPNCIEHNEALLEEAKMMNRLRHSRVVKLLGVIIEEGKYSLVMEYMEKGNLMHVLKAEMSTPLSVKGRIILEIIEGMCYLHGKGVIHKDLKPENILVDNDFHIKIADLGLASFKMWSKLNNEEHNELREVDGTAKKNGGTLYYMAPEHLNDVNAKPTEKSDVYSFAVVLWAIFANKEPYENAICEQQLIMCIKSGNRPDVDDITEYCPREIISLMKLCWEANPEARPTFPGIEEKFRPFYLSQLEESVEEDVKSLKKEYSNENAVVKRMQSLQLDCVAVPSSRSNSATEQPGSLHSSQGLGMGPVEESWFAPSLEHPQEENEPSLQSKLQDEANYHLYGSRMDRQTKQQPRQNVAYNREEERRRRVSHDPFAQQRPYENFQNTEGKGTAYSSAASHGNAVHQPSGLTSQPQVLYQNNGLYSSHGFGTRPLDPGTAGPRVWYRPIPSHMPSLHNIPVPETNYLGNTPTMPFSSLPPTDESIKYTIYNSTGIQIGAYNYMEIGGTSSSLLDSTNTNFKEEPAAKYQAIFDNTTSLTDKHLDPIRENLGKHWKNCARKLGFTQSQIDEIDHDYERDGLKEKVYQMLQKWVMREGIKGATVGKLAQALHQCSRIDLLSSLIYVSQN

B1: TAK1 (mouse, endogenous) (enzyme, UniProt Q62073 1-579)
chain: MSTASAASSSSSSSASEMIEAPSQVLNFEEIDYKEIEVEEVVGRGAFGVVCKAKWRAKDVAIKQIESESERKAFIVELRQLSRVNHPNIVKLYGACLNPVCLVMEYAEGGSLYNVLHGAEPLPYYTAAHAMSWCLQCSQGVAYLHSMQPKALIHRDLKPPNLLLVAGGTVLKICDFGTACDIQTHMTNNKGSAAWMAPEVFEGSNYSEKCDVFSWGIILWEVITRRKPFDEIGGPAFRIMWAVHNGTRPPLIKNLPKPIESLMTRCWSKDPSQRPSMEEIVKIMTHLMRYFPGADEPLQYPCQYSDEGQSNSATSTGSFMDIASTNTSNKSDTNMEQVPATNDTIKRLESKLLKNQAKQQSESGRLSLGASRGSSVESLPPTSEGKRMSADMSEIEARIVATAGNGQPRRRSIQDLTVTGTEPGQVSSRSSSPSVRMITTSGPTSEKPARSHPWTPDDSTDTNGSDNSIPMAYLTLDHQLQPLAPCPNSKESMAVFEQHCKMAQEYMKVQTEIALLLQRKQELVAELDQDEKDQQNTSRLVQEHKKLLDENKSLSTYYQQCKKQLEVIRSQQQKRQGTS
B2: A20 (mouse, endogenous) (enzyme, UniProt Q60769 1-775)
chain: MAEQLLPQALYLSNMRKAVKIRERTPEDIFKPTNGIIYHFKTMHRYTLEMFRTCQFCPQFREIIHKALIDRSVQASLESQKKLNWCREVRKLVALKTNGDGNCLMHAACQYMWGVQDTDLVLRKALCSTLKETDTRNFKFRWQLESLKSQEFVETGLCYDTRNWNDEWDNLVKMASADTPAARSGLQYNSLEEIHIFVLSNILRRPIIVISDKMLRSLESGSNFAPLKVGGIYLPLHWPAQECYRYPIVLGYDSQHFVPLVTLKDSGPELRAVPLVNRDRGRFEDLKVHFLTDPENEMKEKLLKEYLIVMEIPVQGWDHGTTHLINAAKLDEANLPKEINLVDDYFELVQHEYKKWQENSDQARRAAHAQNPLEPSTPQLSLMDIKCETPNCPFFMSVNTQPLCHECSERRQKNQSKLPKLNSKLGPEGLPGVGLGSSNWSPEETAGGPHSAPPTAPSLFLFSETTAMKCRSPGCPFTLNVQHNGFCERCHARQINASHTADPGKCQACLQDVTRTFNGICSTCFKRTTAEPSSSLTSSIPASCHQRSKSDPSQLIQSLTPHSCHRTGNVSPSGCLSQAARTPGDRAGTSKCRKAGCMYFGTPENKGFCTLCFIEYRENKQSVTASEKAGSPAPRFQNNVPCLGRECGTLGSTMFEGYCQKCFIEAQNQRFHEARRTEEQLRSSQHRDMPRTTQVASRLKCARASCKNILACRSEELCMECQHLSQRVGSVAHRGEPTPEEPPKQRCRAPACDHFGNAKCNGYCNECYQFKQMYG
B3: HOIL (mouse, endogenous) (protein, UniProt Q9WUB0 1-508)
chain: MDEKTKKAEEMALSLARAVAGGDEQAAIKYATWLAEQRVPLRVQVKPEVSPTQDIRLCVSVEDAYMHTVTIWLTVRPDMTVASLKDMVFLDYGFPPSLQQWVVGQRLARDQETLHSHGIRRNGDGAYLYLLSARNTSLNPQELQRQRQLRMLEDLGFKDLTLQSRGPLEPVLPKPRTNQEPGQPDAAPESPPVGWQCPGCTFINKPTRPGCEMCCRARPETYQIPASYQPDEEERARLAGEEEALRQYQQRKQQQQEGNYLQHVQLEQRSLVLNTEPTECPVCYSVLAPGEAVVLRECLHTFCRECLQGTIRNSQEAEVACPFIDSTYSCPGKLLEREIRALLSPEDYQRFLDLGVSIAENRSTLSYHCKTPDCRGWCFFEDDVNEFTCPVCTRVNCLLCKAIHEHMNCREYQDDLALRAQNDVAARQTTEMLKVMLQQGEAMHCPQCRIVVQKKDGCDWIRCTVCHTEICWVTKGPRWGPGGPGDTSGGCRCRVNGIPCHPSCQNCH
B4: SHARPIN (mouse, endogenous) (protein, UniProt Q91WA6 1-380)
chain: MSPPAGGAAVAADPASPVVLLAVHAAVRPLGAGQDAEAQPRKLQLIADPERPGRFRLGLLGTEPGAVSLEWPLEAICYTVRGPNQHELQPPPGGPGTFSVHFLDPEEAQQWAALVRDATAEGQNGSGSPAPAPAPAMCPISPPCSSMAQIPKATQPEVDLPQSSGNFKKEELATRLSQAIAGGDEKAAAQVAAVLAQHHVALNVQLMEAWFPPGPIRLQVTVEDATSVLSSSSSAHVSLKIHPHCSIAALQDQVFSEFGFPPAVQRWVIGRCLCMPERSLASYGVSQDGDPAFLYLLSAPREVSGQSLQNSKMDRKLGLFPQSLGLPHDLQPSSSSLPSPSQPGWSCPSCTFINASNRPGCEMCSTQRPCAWDPLAAAST
B5: MLKL (mouse, endogenous) (protein, UniProt Q9D2Y4 1-472)
chain: MDKLGQIIKLGQLIYEQCEKMKYCRKQCQRLGNRVHGLLQPLQRLQAQGKKNLPDDITAALGRFDEVLKEANQQIEKFSKKSHIWKFVSVGNDKILFHEVNEKLRDVWEELLLLLQVYHWNTVSDVSQPASWQQEDRQDAEEDGNENMKVILMQLQISVEEINKTLKQCSLKPTQEIPQDLQIKEIPKEHLGPPWTKLKTSKMSTIYRGEYHRSPVTIKVFNNPQAESVGIVRFTFNDEIKTMKKFDSPNILRIFGICIDQTVKPPEFSIVMEYCELGTLRELLDREKDLTMSVRSLLVLRAARGLYRLHHSETLHRNISSSSFLVAGGYQVKLAGFELSKTQNSISRTAKSTKAERSSSTIYVSPERLKNPFCLYDIKAEIYSFGIVLWEIATGKIPFEGCDSKKIRELVAEDKKQEPVGQDCPELLREIINECRAHEPSQRPSVDGRSLSGRERILERLSAVEESTDKKV
B6: HA-hRIPK1-WT, Q13546 1-671 (protein)
chain: T2 chain
B7: murine RIPK1 (receptor interacting protein kinase 1), wild type, Q60855 1-656 (protein)
chain: MQPDMSLDNIKMASSDLLEKTDLDSGGFGKVSLCYHRSHGFVILKKVYTGPNRAEYNEVLLEEGKMMHRLRHSRVVKLLGIIIEEGNYSLVMEYMEKGNLMHVLKTQIDVPLSLKGRIIVEAIEGMCYLHDKGVIHKDLKPENILVDRDFHIKIADLGVASFKTWSKLTKEKDNKQKEVSSTTKKNNGGTLYYMAPEHLNDINAKPTEKSDVYSFGIVLWAIFAKKEPYENVICTEQFVICIKSGNRPNVEEILEYCPREIISLMERCWQAIPEDRPTFLGIEEEFRPFYLSHFEEYVEEDVASLKKEYPDQSPVLQRMFSLQHDCVPLPPSRSNSEQPGSLHSSQGLQMGPVEESWFSSSPEYPQDENDRSVQAKLQEEASYHAFGIFAEKQTKPQPRQNEAYNREEERKRRVSHDPFAQQRARENIKSAGARGHSDPSTTSRGIAVQQLSWPATQTVWNNGLYNQHGFGTTGTGVWYPPNLSQMYSTYKTPVPETNIPGSTPTMPYFSGPVADDLIKYTIFNSSGIQIGNHNYMDVGLNSQPPNNTCKEESTSRHQAIFDNTTSLTDEHLNPIRENLGRQWKNCARKLGFTESQIDEIDHDYERDGLKEKVYQMLQKWLMREGTKGATVGKLAQALHQCCRIDLLNHLIRASQS
B8: TRADD (mouse, endogenous) (protein, UniProt Q3U0V2 1-310)
chain: MAAGQNGHEEWVGSAYLFLESAVDKVILSEAYTDPKKKVAIYKALQTALSESGDSSDVLQILKIHCSDPQLIVQLRFCGRVLCGRFLQAYREGALRTALQRCMAPALAQEALRLQLELRAGAEQLDSWLTDEERCLNYILAQKPDRLRDEELAELEDELCKLTCDCTGQGGAIQVASAGSKFPVSSPTEEKPLPAACQTFLFHGQLVVNRPLTLQDQQTFARSVGLKWRRVGRSLQRNCRALRDPALDSLAYEYERDGLYEQAFQLLRRFMQAEGRRATLQRLVEALEENELTSLAEDLLGQAEPDGGLA

Tests used:
[1] = target: T1, TNFR1 (mouse, endogenous) (mouse (endogenous in MEFs)); assay: co-IP; complex I precipitated with TNFR1 antibody from Ripk1+/+ and Ripk1K612R/K612R MEFs treated with mTNFα (100 ng/ml) for indicated times; western blot
[2] = target: RIPK3 (mouse, endogenous) (mouse (endogenous in MEFs and BMDMs)) (UniProt Q9QZL0); assay: co-IP; complex IIb isolated with RIPK3 antibody from primary BMDMs pretreated with Z-VAD (25 μM) or vehicle for 30 min, then LPS (50 ng/ml); western blot
[3] = target: RIPK3 (mouse, endogenous) (mouse (endogenous in MEFs and BMDMs)) (UniProt Q9QZL0); assay: co-IP; complex IIb precipitated with RIPK3 antibodies from Ripk1+/+ and Ripk1K612R/K612R MEFs pretreated with SM-164 (100 nM) or 5Z-7 (200 nM) for 2 h, then mTNFα (100 ng/ml)/Z-VAD (25 μM); western blot
[4] = target: T2, myc-hRIPK1-WT (full length) (human), …; assay: co-IP; HEK293T cells cotransfected for 18 h; lysates precipitated with anti-Myc conjugated agarose beads; western blot; conditions: remark: other sources report otherwise
[5] = target: RIPK3 (mouse, endogenous) (mouse (endogenous in MEFs and BMDMs)), Q9QZL0; assay: co-IP; complex IIb precipitated with RIPK3 antibodies from Ripk1+/+ and Ripk1K612R/K612R MEFs pretreated with SM-164 (100 nM) or 5Z-7 (200 nM) for 2 h, then mTNFα (100 ng/ml)/Z-VAD (25 μM); western blot; conditions: remark: other sources report otherwise

| Binder | binding [1] | further results |
| --- | --- | --- |
| B1 | binds | – |
| B2 | binds | – |
| B3 | binds | – |
| B4 | binds | – |
| B5 | – | binding [2]: binds; binding [3]: binds |
| B6 | – | binding [4]: binds |
| B7 | – | binding [5]: binds |
| B8 | binds | – |
